Results from the supplement of paper PMC12823440, “Inhibitors supercharge kinase turnover through native proteolytic circuits” (Nature, 2025).
Counter-ions that a name gives are not always drawn. The list shows a part of the results. Hit calls seldom repeat between salt and free forms of one compound.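 In K562 cells expressing nanoluciferase-fused kinases, luminescence was recorded at 4 h intervals between 2 and 18 h, normalized as percent of control with DMSO at 100% and a positive control at 0%. A significant (2 sigma) signal drop marks a time point as decreased. The authors' rule for a hit is not shown and takes in more than the number of time points.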

Amino acid sequences for entries named in this document (tags omitted). A change or cut given only in a name is not applied to a line headed by its entry.
UniProt Q16288, whole entry, looked up: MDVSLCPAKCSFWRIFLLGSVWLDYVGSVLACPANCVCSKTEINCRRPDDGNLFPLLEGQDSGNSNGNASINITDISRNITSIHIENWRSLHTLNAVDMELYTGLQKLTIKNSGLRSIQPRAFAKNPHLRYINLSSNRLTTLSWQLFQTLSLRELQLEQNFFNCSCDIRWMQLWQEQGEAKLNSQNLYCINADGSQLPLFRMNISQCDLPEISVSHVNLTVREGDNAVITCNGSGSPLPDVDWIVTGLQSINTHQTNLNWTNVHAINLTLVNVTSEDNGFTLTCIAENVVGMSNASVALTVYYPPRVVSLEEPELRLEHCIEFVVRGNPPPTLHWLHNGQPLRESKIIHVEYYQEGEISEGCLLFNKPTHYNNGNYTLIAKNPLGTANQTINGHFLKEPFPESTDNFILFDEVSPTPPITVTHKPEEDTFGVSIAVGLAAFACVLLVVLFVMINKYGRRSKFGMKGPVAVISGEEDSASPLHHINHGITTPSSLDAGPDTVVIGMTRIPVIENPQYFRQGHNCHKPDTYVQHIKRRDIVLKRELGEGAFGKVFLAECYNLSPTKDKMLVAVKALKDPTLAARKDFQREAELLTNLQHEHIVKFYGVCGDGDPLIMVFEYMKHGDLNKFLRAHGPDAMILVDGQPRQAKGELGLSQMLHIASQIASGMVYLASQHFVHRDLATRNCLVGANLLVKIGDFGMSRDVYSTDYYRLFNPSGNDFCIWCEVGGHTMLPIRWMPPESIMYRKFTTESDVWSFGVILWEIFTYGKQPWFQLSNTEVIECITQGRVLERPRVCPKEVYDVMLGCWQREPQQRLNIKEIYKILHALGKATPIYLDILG
UniProt O96013: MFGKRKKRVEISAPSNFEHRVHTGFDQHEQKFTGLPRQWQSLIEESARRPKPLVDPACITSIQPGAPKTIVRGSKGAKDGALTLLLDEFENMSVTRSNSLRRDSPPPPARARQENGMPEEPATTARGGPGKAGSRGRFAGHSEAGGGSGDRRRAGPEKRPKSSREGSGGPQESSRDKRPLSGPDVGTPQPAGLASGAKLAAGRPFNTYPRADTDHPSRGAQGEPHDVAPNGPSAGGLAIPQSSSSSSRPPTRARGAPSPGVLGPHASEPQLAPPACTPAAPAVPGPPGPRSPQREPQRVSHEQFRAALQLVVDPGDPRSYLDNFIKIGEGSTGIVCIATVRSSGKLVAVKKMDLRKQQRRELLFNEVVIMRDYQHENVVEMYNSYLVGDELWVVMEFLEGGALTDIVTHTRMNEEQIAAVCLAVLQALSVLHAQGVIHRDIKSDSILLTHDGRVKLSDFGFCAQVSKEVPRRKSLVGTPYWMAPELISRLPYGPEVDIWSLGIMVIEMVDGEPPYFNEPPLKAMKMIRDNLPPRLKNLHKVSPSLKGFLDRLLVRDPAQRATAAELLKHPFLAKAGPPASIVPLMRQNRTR
UniProt P09619, whole entry: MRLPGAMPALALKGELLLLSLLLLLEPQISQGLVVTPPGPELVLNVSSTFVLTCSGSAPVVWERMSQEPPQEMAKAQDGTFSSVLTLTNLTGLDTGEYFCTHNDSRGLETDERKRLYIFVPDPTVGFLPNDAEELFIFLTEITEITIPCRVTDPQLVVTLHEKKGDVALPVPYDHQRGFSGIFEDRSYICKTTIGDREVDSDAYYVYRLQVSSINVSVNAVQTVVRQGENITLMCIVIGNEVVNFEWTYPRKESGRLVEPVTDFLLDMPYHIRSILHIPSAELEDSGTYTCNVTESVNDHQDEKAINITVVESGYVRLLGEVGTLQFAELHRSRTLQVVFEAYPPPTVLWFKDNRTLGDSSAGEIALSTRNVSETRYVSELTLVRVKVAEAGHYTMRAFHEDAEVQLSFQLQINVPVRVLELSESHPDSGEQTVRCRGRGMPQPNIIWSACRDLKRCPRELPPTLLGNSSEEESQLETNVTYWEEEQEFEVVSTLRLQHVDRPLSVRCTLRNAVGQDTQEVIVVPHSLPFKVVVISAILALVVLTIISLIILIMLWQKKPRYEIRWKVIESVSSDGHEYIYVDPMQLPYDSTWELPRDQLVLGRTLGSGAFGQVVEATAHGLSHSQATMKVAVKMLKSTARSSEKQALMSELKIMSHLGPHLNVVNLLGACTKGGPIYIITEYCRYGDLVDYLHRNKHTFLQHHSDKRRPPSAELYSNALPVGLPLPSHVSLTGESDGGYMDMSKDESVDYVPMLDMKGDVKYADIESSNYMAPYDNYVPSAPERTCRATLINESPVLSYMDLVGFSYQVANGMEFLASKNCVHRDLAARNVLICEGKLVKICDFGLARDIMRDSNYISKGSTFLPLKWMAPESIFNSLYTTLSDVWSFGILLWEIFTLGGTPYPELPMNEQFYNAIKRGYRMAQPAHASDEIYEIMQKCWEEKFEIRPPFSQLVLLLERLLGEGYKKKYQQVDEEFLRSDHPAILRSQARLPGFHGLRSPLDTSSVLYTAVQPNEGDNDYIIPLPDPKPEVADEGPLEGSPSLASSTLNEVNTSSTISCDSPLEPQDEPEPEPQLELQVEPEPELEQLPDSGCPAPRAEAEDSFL
UniProt Q15118, whole entry, looked up: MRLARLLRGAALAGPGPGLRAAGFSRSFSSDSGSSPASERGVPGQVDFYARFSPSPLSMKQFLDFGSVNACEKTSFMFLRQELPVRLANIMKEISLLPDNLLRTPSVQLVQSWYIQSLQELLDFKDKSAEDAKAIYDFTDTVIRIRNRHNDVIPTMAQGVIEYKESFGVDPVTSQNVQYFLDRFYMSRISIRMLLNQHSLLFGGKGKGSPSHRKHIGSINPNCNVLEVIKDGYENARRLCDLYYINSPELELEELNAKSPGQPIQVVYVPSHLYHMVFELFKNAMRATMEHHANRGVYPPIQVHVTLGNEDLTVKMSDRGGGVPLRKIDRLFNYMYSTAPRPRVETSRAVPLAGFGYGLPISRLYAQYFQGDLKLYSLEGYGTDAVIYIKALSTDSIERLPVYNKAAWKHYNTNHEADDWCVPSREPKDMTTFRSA
UniProt P42356, whole entry, looked up: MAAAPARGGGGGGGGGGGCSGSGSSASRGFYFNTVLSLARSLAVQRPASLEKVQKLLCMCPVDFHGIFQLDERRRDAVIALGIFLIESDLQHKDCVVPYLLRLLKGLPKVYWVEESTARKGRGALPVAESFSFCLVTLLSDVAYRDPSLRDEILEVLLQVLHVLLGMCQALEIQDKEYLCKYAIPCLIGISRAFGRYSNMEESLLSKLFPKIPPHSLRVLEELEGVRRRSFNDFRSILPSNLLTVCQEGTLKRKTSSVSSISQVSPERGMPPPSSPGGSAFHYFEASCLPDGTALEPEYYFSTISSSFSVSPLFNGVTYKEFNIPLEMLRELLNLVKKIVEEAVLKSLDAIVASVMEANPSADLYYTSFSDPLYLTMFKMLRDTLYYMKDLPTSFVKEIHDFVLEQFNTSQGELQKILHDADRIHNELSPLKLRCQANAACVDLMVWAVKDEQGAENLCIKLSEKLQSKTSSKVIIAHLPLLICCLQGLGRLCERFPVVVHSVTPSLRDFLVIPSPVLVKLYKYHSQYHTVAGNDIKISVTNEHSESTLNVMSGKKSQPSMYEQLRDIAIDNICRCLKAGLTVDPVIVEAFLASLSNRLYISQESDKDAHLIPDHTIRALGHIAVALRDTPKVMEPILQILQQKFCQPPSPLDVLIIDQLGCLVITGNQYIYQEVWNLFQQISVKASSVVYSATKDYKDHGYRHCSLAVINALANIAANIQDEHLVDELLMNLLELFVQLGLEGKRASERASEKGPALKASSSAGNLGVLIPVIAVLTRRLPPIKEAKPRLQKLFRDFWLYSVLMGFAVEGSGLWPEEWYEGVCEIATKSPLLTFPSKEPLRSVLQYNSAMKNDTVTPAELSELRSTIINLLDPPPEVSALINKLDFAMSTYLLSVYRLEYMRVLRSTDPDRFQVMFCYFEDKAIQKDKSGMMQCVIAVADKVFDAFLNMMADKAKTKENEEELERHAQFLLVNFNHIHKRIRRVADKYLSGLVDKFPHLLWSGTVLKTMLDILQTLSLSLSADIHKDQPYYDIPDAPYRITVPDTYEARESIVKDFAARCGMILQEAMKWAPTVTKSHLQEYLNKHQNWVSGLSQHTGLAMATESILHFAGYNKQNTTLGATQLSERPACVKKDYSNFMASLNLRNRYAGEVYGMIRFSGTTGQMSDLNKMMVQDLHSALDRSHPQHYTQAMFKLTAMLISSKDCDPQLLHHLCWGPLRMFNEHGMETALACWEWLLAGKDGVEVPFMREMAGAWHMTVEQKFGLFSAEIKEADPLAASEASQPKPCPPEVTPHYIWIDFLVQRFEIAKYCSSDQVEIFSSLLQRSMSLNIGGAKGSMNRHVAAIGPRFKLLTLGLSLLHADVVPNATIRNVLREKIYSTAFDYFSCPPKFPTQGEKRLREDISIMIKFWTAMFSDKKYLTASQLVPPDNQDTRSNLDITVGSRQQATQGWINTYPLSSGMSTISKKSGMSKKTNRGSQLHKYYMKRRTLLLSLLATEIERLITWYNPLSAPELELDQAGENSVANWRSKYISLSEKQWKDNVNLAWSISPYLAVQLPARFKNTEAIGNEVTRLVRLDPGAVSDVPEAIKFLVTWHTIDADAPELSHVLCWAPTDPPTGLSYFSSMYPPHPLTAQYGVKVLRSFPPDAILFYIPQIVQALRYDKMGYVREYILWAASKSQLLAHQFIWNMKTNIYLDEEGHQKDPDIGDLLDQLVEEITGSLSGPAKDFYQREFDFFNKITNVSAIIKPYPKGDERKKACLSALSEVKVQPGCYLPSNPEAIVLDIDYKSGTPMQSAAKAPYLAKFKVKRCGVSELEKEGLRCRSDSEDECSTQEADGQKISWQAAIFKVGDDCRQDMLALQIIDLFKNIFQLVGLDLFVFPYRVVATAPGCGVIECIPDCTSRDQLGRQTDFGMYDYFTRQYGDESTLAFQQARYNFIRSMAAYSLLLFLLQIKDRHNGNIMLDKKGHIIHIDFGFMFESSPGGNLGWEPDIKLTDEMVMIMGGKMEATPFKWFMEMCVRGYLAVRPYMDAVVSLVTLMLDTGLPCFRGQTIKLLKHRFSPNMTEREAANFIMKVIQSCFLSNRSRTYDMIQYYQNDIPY
UniProt Q9UBF8: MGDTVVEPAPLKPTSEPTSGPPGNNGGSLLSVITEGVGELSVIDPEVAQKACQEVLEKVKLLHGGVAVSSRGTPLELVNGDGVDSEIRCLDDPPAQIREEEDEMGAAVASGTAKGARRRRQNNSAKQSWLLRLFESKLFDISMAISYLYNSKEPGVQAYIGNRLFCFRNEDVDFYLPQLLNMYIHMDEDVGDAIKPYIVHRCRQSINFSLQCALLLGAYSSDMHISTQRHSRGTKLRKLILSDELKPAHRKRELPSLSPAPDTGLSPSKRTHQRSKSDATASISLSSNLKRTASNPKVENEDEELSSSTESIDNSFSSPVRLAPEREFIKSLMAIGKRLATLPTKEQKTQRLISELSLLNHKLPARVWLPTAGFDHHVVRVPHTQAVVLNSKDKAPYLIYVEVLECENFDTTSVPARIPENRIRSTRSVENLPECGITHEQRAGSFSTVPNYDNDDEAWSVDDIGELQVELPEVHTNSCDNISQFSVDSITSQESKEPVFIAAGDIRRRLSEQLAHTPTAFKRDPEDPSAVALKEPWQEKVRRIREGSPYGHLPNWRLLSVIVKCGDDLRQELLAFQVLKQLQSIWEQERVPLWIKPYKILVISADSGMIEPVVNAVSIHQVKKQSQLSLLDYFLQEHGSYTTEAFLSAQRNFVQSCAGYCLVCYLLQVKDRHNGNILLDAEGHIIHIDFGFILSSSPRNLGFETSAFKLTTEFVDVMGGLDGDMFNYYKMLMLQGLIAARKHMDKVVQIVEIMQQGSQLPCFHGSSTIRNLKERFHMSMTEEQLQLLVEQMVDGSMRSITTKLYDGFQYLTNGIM
UniProt P53350, whole entry: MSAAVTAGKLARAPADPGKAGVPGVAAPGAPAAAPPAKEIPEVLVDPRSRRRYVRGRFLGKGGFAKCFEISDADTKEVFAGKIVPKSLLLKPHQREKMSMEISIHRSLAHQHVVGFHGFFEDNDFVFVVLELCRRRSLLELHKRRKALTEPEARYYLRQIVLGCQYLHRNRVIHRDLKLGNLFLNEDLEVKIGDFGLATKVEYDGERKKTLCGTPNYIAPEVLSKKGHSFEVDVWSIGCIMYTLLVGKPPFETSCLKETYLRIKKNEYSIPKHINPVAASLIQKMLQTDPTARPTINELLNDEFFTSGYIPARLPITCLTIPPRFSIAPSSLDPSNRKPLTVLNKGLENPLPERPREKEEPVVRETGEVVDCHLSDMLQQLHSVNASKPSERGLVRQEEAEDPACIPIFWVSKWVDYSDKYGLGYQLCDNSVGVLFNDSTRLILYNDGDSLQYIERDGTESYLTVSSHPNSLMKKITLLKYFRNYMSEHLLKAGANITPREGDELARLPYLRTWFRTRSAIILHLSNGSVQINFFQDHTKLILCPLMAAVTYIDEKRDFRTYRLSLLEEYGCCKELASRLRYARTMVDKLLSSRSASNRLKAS

Columns and labels:
Test in all cases: number of time points (of 5) at which kinase-Nluc abundance scored as decreased, DMSO-normalised (count); higher = more persistent destabilization
Conditions in all cases: K562; 2-18 h
[1] = biological target: NTRK3 (UniProt Q16288)
[2] = biological target: PAK4 (UniProt O96013)
[3] = biological target: PBK (UniProt Q96KB5)
[4] = biological target: PDGFRB (UniProt P09619)
[5] = biological target: PDK1 (UniProt Q15118)
[6] = biological target: PDPK1 (UniProt O15530)
[7] = biological target: PIK4CA (UniProt P42356)
[8] = biological target: PIK4CB (UniProt Q9UBF8)
[9] = biological target: PLK1 (UniProt P53350)
[10] = biological target: PRKAA1 (UniProt Q13131)

Structure (SMILES) | number of time points [1] | number of time points [2] | number of time points [3] | number of time points [4] | number of time points [5] | number of time points [6] | number of time points [7] | number of time points [8] | number of time points [9] | number of time points [10]
Cc1cc(Nc2cc(N3CCN(C)CC3)nc(Nc3ccc([N+](=O)[O-])cc3)n2)n[nH]1 (2.5 µM) | 0 | 0 | 0 | 4 | 0 | 0 | 0 | 0 | 0 | 0
Cc1nc[nH]c1CN1CCN(C(=O)N[C@@H](CC(C)C)C(=O)O)[C@@H](Cc2ccccc2)C1=O (10 µM) | 0 | 0 | 0 | 0 | 0 | 0 | 0 | 0 | 0 | 0
CCCCCc1ccc(/C=C/[C@H](O)[C@@H](CO)NC)cc1 [SK1-I (hydrochloride)] (10 µM) | 0 | 0 | 0 | 0 | 0 | 0 | 0 | 0 | 0 | 0
Brc1ccc(CSc2nc3ccccc3o2)cc1 [BMP signaling agonist sb4] (10 µM) | 0 | 0 | 0 | 0 | 0 | 0 | 0 | 0 | 0 | 0
CCCCCC(=O)N[C@@H](Cc1ccc(O)cc1)C(=O)OC (10 µM) | 0 | 0 | 0 | 0 | 0 | 0 | 0 | 0 | 0 | 0
O=C(NCCO)c1cc(C(=O)NCCO)cc(C(=O)NCCO)c1 (10 µM) | 0 | 0 | 0 | 0 | 0 | 0 | 0 | 0 | 0 | 0
N#Cc1ccc2ncnc(NCCc3ccccc3)c2c1 [Senexin A] (10 µM) | 0 | 0 | 0 | 0 | 0 | 0 | 0 | 0 | 0 | 0
C[C@@H](Nc1ncnc2[nH]c(-c3ccc(O)cc3)cc12)c1ccccc1 (2.5 µM) | 0 | 0 | 0 | 0 | 0 | 0 | 0 | 0 | 0 | 0
C=CC(=O)N1CC[C@@H](Oc2nc(Nc3ccc(N4CCC(N5CCN(C)CC5)CC4)cc3)c(C(N)=O)nc2CC)C1 [Naquotinib (mesylate)] (2.5 µM) | 0 | 0 | 0 | 0 | 0 | 0 | 0 | 0 | 0 | 0
NC1(C(=O)NCCCn2cc(-c3ccc(OC(F)(F)F)cc3)c3cc(CN4CCN(Cc5c(Cl)cccc5Cl)CC4)ccc32)CCNCC1 (2.5 µM) | 0 | 0 | 0 | 0 | 0 | 0 | 0 | 0 | 0 | 0
c1ccc(Cn2c(-c3ccc(OC[C@H](C4CCNCC4)n4c(-c5ccccc5)nc5ccccc54)cc3)nc3ccccc32)cc1 [Deltarasin] (2.5 µM) | 0 | 0 | 0 | 0 | 0 | 0 | 1 | 0 | 0 | 0
COCCOc1ccc2c(c1)ncn2-c1ccc2cccc(N3CCC(N)CC3)c2n1 (10 µM) | 2 | 0 | 0 | 2 | 0 | 4 | 3 | 2 | 0 | 2
NC[C@@](O)(c1ccc(Cl)cc1)c1ccc(-c2cn[nH]c2)cc1 (10 µM) | 0 | 0 | 0 | 0 | 0 | 0 | 0 | 0 | 0 | 0
CN1CCC(CNc2ccc3ncc(-c4cccc(OC(F)(F)F)c4)n3n2)CC1 (2.5 µM) | 0 | 0 | 0 | 0 | 0 | 0 | 0 | 0 | 0 | 0
Cc1cc(C(=O)NOCCO)c(Nc2ccc(I)cc2F)n(C)c1=O (10 µM) | 0 | 0 | 0 | 0 | 0 | 0 | 0 | 0 | 0 | 0
COc1cc2nccc(Oc3ccc(NC(=O)c4cn(C(C)C)c(=O)n(-c5ccc(F)cc5)c4=O)cc3F)c2cc1OC (0.5 µM) | 0 | 0 | 0 | 0 | 0 | 4 | 0 | 0 | 1 | 0
O=C(ON=C1c2ccccc2-c2nc3ccccc3nc21)c1ccco1 (2.5 µM) | 0 | 0 | 0 | 0 | 0 | 0 | 0 | 0 | 0 | 0

In the list so far, 4 have an NH in an aromatic ring.
Structure (SMILES) | number of time points [1] | number of time points [2] | number of time points [3] | number of time points [4] | number of time points [5] | number of time points [6] | number of time points [7] | number of time points [8] | number of time points [9] | number of time points [10]
Cc1cc(Nc2cc(N3CCN(C)CC3)nc(Nc3ccc([N+](=O)[O-])cc3)n2)n[nH]1 (2.5 µM) | 0 | 0 | 0 | 4 | 0 | 0 | 0 | 0 | 0 | 0
Cc1nc[nH]c1CN1CCN(C(=O)N[C@@H](CC(C)C)C(=O)O)[C@@H](Cc2ccccc2)C1=O (10 µM) | 0 | 0 | 0 | 0 | 0 | 0 | 0 | 0 | 0 | 0
C[C@@H](Nc1ncnc2[nH]c(-c3ccc(O)cc3)cc12)c1ccccc1 (2.5 µM) | 0 | 0 | 0 | 0 | 0 | 0 | 0 | 0 | 0 | 0
NC[C@@](O)(c1ccc(Cl)cc1)c1ccc(-c2cn[nH]c2)cc1 (10 µM) | 0 | 0 | 0 | 0 | 0 | 0 | 0 | 0 | 0 | 0

(more compounds)

Structure (SMILES) | number of time points [1] | number of time points [2] | number of time points [3] | number of time points [4] | number of time points [5] | number of time points [6] | number of time points [7] | number of time points [8] | number of time points [9] | number of time points [10]
O=C(Nc1ccc(Cl)cc1)C1CCCN(C(=O)c2cc(C(F)(F)F)cc(C(F)(F)F)c2)C1 (stereo not given) (10 µM) | 0 | 0 | 0 | 0 | 0 | 0 | 0 | 0 | 0 | 0
COc1cc(F)ccc1-c1ncnc(Nc2cccc(C[S@](C)(=N)=O)c2)n1 [Atuveciclib] (2.5 µM) | 0 | 0 | 0 | 2 | 0 | 2 | 0 | 2 | 0 | 2
COc1cc(N2CCC(N3CCN(C)CC3)CC2)ccc1Nc1ncc(Cl)c(-c2c[nH]c3ccccc23)n1 (2.5 µM) | 0 | 0 | 0 | 0 | 0 | 0 | 0 | 0 | 0 | 0
N#Cc1ccc(-c2cnc3[nH]cc(NC(=O)c4cccnc4)c3c2)cc1 (10 µM) | 0 | 0 | 0 | 0 | 0 | 0 | 0 | 0 | 0 | 0
C=CC(=O)N1CCN(C(=O)CNc2cc(I)c(Cl)cc2O)CC1 [K-Ras(G12C) inhibitor 12] (10 µM) | 0 | 0 | 0 | 0 | 0 | 0 | 0 | 0 | 0 | 0
COCCOCCc1c(C)c2cc(OC)c(O)c(C=O)c2oc1=O (10 µM) | 0 | 0 | 0 | 0 | 0 | 0 | 0 | 0 | 0 | 0
COC(=O)Nc1ccc(-c2nc(N3CCOCC3)c3cnn(C4CCN(C(=O)OC)CC4)c3n2)cc1 (10 µM) | 0 | 0 | 0 | 0 | 0 | 0 | 0 | 0 | 0 | 0
Cc1c(Cl)cccc1S(=O)(=O)Nc1nc(NCCc2ccccc2)nc2c1CN(Cc1ccccc1)CC2 (2.5 µM) | 0 | 0 | 0 | 0 | 0 | 0 | 0 | 0 | 0 | 0
CO[C@H]1C[C@@H]2CC[C@@H](C)[C@@](O)(O2)C(=O)C(=O)N2CCCC[C@H]2C(=O)O[C@H]([C@H](C)C[C@@H]2CC[C@@H](OC(=O)C(C)(CO)CO)[C@H](OC)C2)CC(=O)[C@H](C)/C=C(\C)[C@@H](O)[C@@H](OC)C(=O)[C@H](C)C[C@H](C)/C=C/C=C/C=C/1C [Temsirolimus] (2.5 µM) | 0 | 0 | 0 | 0 | 0 | 0 | 0 | 0 | 0 | 0
COc1cc2c(cc1Nc1ncc(C(N)=O)c(Nc3c(F)cccc3C(F)(F)F)n1)CN(C)CC2 (2.5 µM) | 0 | 0 | 0 | 0 | 0 | 0 | 0 | 0 | 0 | 0
O=Nc1c(-c2c(O)[nH]c3cc(Br)ccc23)[nH]c2ccccc12 [GSK 3 Inhibitor IX] (2.5 µM) | 0 | 0 | 0 | 0 | 0 | 0 | 0 | 0 | 0 | 0
COC(=O)/C=C/c1ccccc1 [Methyl cinnamate] (10 µM) | 0 | 0 | 0 | 0 | 0 | 0 | 0 | 0 | 0 | 0
COc1c(O)cc2oc(-c3ccc(O)cc3)cc(=O)c2c1O [Hispidulin] (10 µM) | 0 | 0 | 0 | 0 | 0 | 0 | 0 | 0 | 0 | 0
NCC1CCC(CNc2nc(NCc3ccccc3OC(F)(F)F)ncc2[N+](=O)[O-])CC1 (stereo not given) [PKC-theta inhibitor] (10 µM) | 4 | 0 | 0 | 3 | 0 | 2 | 3 | 1 | 0 | 0
COc1ccc2c(Oc3ccc4c(C(=O)Nc5ccccc5N)cccc4c3)ccnc2c1 [Chiauranib] (10 µM) | 0 | 0 | 0 | 4 | 0 | 0 | 4 | 0 | 0 | 0
C=C1C(=O)[C@@]23[C@H](O)C[C@@H]4C(C)(C)C(=O)CC[C@@]4(C)[C@@H]2CC[C@@H]1[C@H]3O [Glaucocalyxin A] (2.5 µM) | 0 | 0 | 0 | 0 | 0 | 0 | 0 | 0 | 0 | 0
